Data published in ChEMBL document CHEMBL5674883, “The Heterochromatin Landscape in Migrating Cells and the Importance of H3K27me3 for Associated Transcriptome Alterations” (Cells, 2018).
This continues a long series; more values of the same kind are listed elsewhere.

Sequences of proteins named here, by UniProt entry; tags and fusion partners are left off.
UniProt Q61188, whole entry: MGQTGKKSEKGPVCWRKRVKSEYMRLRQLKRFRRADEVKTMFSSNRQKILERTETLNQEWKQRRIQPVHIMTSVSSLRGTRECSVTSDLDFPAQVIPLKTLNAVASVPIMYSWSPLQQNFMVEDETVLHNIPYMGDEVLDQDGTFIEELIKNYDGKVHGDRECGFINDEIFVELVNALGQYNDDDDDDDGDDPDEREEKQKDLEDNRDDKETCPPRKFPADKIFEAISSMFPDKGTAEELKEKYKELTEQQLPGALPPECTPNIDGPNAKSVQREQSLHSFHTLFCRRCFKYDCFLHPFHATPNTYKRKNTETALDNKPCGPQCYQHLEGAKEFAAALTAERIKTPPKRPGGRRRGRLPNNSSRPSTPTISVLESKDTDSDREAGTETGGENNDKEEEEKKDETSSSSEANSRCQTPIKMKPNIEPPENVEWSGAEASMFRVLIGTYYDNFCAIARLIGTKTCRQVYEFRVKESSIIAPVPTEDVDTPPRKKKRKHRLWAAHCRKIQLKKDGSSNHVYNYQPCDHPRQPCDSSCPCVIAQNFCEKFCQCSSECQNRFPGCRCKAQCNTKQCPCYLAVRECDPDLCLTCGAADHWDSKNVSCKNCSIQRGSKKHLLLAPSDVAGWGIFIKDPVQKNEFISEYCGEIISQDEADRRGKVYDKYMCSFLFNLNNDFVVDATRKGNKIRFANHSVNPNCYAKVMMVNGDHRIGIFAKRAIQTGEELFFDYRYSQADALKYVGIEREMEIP

Legend:
Assay type in all cases: cell-based
[1] = molecular target: Histone-lysine N-methyltransferase EZH2 (Mus musculus) (UniProt Q61188); experiment: Inhibition of EZH2 in mouse B16-F1 migrating cells assessed as fold change in H3K27me3-dependent regulated Atoh8-mRNA expression at 3 uM measured by ChIP-seq analysis relative to control cells
[2] = molecular target: Histone-lysine N-methyltransferase EZH2 (Mus musculus) (UniProt Q61188); experiment: Inhibition of EZH2 in mouse B16-F1 migrating cells assessed as fold change in H3K27me3-buffered regulated Zan-mRNA expression at 3 uM measured by ChIP-seq analysis relative to control cells
[3] = molecular target: Histone-lysine N-methyltransferase EZH2 (Mus musculus) (UniProt Q61188); experiment: Inhibition of EZH2 in mouse B16-F1 migrating cells assessed as fold change in H3K27me3-buffered regulated Nudt17-mRNA expression at 3 uM measured by ChIP-seq analysis relative to control cells
[4] = molecular target: Histone-lysine N-methyltransferase EZH2 (Mus musculus) (UniProt Q61188); experiment: Inhibition of EZH2 in mouse B16-F1 migrating cells assessed as fold change in H3K27me3-buffered regulated Rgs7bp-mRNA expression at 3 uM measured by ChIP-seq analysis relative to control cells
[5] = molecular target: Histone-lysine N-methyltransferase EZH2 (Mus musculus) (UniProt Q61188); experiment: Inhibition of EZH2 in mouse B16-F1 migrating cells assessed as fold change in H3K27me3-buffered regulated Map3k8-mRNA expression at 3 uM measured by ChIP-seq analysis relative to control cells
[6] = molecular target: Histone-lysine N-methyltransferase EZH2 (Mus musculus) (UniProt Q61188); experiment: Inhibition of EZH2 in mouse B16-F1 migrating cells assessed as fold change in H3K27me3-buffered regulated Arhgap5-mRNA expression at 3 uM measured by ChIP-seq analysis relative to control cells
[7] = molecular target: Histone-lysine N-methyltransferase EZH2 (Mus musculus) (UniProt Q61188); experiment: Inhibition of EZH2 in mouse B16-F1 migrating cells assessed as fold change in H3K27me3-dependent regulated Gm16010-mRNA expression at 3 uM measured by ChIP-seq analysis relative to control cells
[8] = molecular target: Histone-lysine N-methyltransferase EZH2 (Mus musculus) (UniProt Q61188); experiment: Inhibition of EZH2 in mouse B16-F1 migrating cells assessed as fold change in H3K27me3-dependent regulated Hbegf-mRNA expression at 3 uM measured by ChIP-seq analysis relative to control cells
[9] = molecular target: Histone-lysine N-methyltransferase EZH2 (Mus musculus) (UniProt Q61188); experiment: Inhibition of EZH2 in mouse B16-F1 migrating cells assessed as fold change in H3K27me3-buffered regulated Sik1-mRNA expression at 3 uM measured by ChIP-seq analysis relative to control cells
[10] = molecular target: T1, RNA polymerase II (Mus musculus) (UniProt P08775+Q8CFI7+P97760+A0A3Q4L2S8+Q80UW8+P61219+P62488+Q923G2+P60898+O08740+Q63871+P62876); experiment: Inhibition of RNA polymerase II in mouse B16-F1 migrating cells assessed as fold change in Atp13a3-RNA stability at 0.1 mM measured by ChIP-seq analysis relative to control cells
[11] = molecular target: T1, RNA polymerase II (Mus musculus); experiment: Inhibition of RNA polymerase II in mouse B16-F1 migrating cells assessed as fold change in Aup1-RNA stability at 0.1 mM measured by ChIP-seq analysis relative to control cells
[12] = molecular target: T1, RNA polymerase II (Mus musculus); experiment: Inhibition of RNA polymerase II in mouse B16-F1 migrating cells assessed as fold change in Pds5a-RNA stability at 0.1 mM measured by ChIP-seq analysis relative to control cells
[13] = molecular target: T1, RNA polymerase II (Mus musculus); experiment: Inhibition of RNA polymerase II in mouse B16-F1 migrating cells assessed as fold change in Rasa1-RNA stability at 0.1 mM measured by ChIP-seq analysis relative to control cells
[14] = molecular target: T1, RNA polymerase II (Mus musculus); experiment: Inhibition of RNA polymerase II in mouse B16-F1 migrating cells assessed as fold change in Ndc80-RNA stability at 0.1 mM measured by ChIP-seq analysis relative to control cells
[15] = molecular target: T1, RNA polymerase II (Mus musculus); experiment: Inhibition of RNA polymerase II in mouse B16-F1 migrating cells assessed as fold change in Snx3-RNA stability at 0.1 mM measured by ChIP-seq analysis relative to control cells
[16] = molecular target: T1, RNA polymerase II (Mus musculus); experiment: Inhibition of RNA polymerase II in mouse B16-F1 migrating cells assessed as fold change in Mreg-RNA stability at 0.1 mM measured by ChIP-seq analysis relative to control cells
[17] = molecular target: T1, RNA polymerase II (Mus musculus); experiment: Inhibition of RNA polymerase II in mouse B16-F1 migrating cells assessed as fold change in Espn-RNA stability at 0.1 mM measured by ChIP-seq analysis relative to control cells
[18] = molecular target: T1, RNA polymerase II (Mus musculus); experiment: Inhibition of RNA polymerase II in mouse B16-F1 migrating cells assessed as fold change in Pkn2-RNA stability at 0.1 mM measured by ChIP-seq analysis relative to control cells
[19] = molecular target: T1, RNA polymerase II (Mus musculus); experiment: Inhibition of RNA polymerase II in mouse B16-F1 migrating cells assessed as fold change in Fubp3-RNA stability at 0.1 mM measured by ChIP-seq analysis relative to control cells
[20] = molecular target: T1, RNA polymerase II (Mus musculus); experiment: Inhibition of RNA polymerase II in mouse B16-F1 migrating cells assessed as fold change in Acsl3-RNA stability at 0.1 mM measured by ChIP-seq analysis relative to control cells
[21] = molecular target: T1, RNA polymerase II (Mus musculus); experiment: Inhibition of RNA polymerase II in mouse B16-F1 migrating cells assessed as fold change in Ubl7-RNA stability at 0.1 mM measured by ChIP-seq analysis relative to control cells
[22] = molecular target: T1, RNA polymerase II (Mus musculus); experiment: Inhibition of RNA polymerase II in mouse B16-F1 migrating cells assessed as fold change in Gbe1-RNA stability at 0.1 mM measured by ChIP-seq analysis relative to control cells
[23] = molecular target: T1, RNA polymerase II (Mus musculus); experiment: Inhibition of RNA polymerase II in mouse B16-F1 migrating cells assessed as fold change in Sra1-RNA stability at 0.1 mM measured by ChIP-seq analysis relative to control cells
[24] = molecular target: T1, RNA polymerase II (Mus musculus); experiment: Inhibition of RNA polymerase II in mouse B16-F1 migrating cells assessed as fold change in Nup153-RNA stability at 0.1 mM measured by ChIP-seq analysis relative to control cells
[25] = molecular target: T1, RNA polymerase II (Mus musculus); experiment: Inhibition of RNA polymerase II in mouse B16-F1 migrating cells assessed as fold change in Hmgb1-RNA stability at 0.1 mM measured by ChIP-seq analysis relative to control cells
[26] = molecular target: T1, RNA polymerase II (Mus musculus); experiment: Inhibition of RNA polymerase II in mouse B16-F1 migrating cells assessed as fold change in Qpct-RNA stability at 0.1 mM measured by ChIP-seq analysis relative to control cells
[27] = molecular target: T1, RNA polymerase II (Mus musculus); experiment: Inhibition of RNA polymerase II in mouse B16-F1 migrating cells assessed as fold change in Csgalnact2-RNA stability at 0.1 mM measured by ChIP-seq analysis relative to control cells
[28] = molecular target: T1, RNA polymerase II (Mus musculus); experiment: Inhibition of RNA polymerase II in mouse B16-F1 migrating cells assessed as fold change in Exoc5-RNA stability at 0.1 mM measured by ChIP-seq analysis relative to control cells
[29] = molecular target: T1, RNA polymerase II (Mus musculus); experiment: Inhibition of RNA polymerase II in mouse B16-F1 migrating cells assessed as fold change in Mrpl2-RNA stability at 0.1 mM measured by ChIP-seq analysis relative to control cells
[30] = molecular target: T1, RNA polymerase II (Mus musculus); experiment: Inhibition of RNA polymerase II in mouse B16-F1 migrating cells assessed as fold change in Pum2-RNA stability at 0.1 mM measured by ChIP-seq analysis relative to control cells

`CCCc1cc(C)[nH]c(=O)c1CNC(=O)c1cc(-c2ccnc(N3CCN(C)CC3)c2)cc2c1cnn2C(C)C` showed a log2FC [1] of -0.03, a log2FC [2] of -0.95 and a log2FC [3] of 0.65. It also gave a log2FC [4] of -0.6, a log2FC [5] of -1.37 and a log2FC [6] of -0.48. It also gave a log2FC [7] of 0.29, a log2FC [8] of 0.24 and a log2FC [9] of 0.68.

For `OC[C@H]1O[C@@H](n2cnc3cc(Cl)c(Cl)cc32)[C@H](O)[C@@H]1O`, the log2FC [10] was -0.61, the log2FC [11] was 0.43 and the log2FC [12] was -0.58. For the same molecule, the log2FC [13] was -0.59, the log2FC [14] was -0.61 and the log2FC [15] was 0.43. It also gave a log2FC [16] of -0.55, a log2FC [17] of 1.45 and a log2FC [18] of -0.67. For the same molecule, the log2FC [19] was -0.8, the log2FC [20] was -0.51 and the log2FC [21] was 0.54. For the same molecule, the log2FC [22] was 0.71, the log2FC [23] was 0.45 and the log2FC [24] was -0.69. It also gave a log2FC [25] of -0.48, a log2FC [26] of -0.58 and a log2FC [27] of -0.68. For the same molecule, the log2FC [28] was -0.56, the log2FC [29] was 0.38 and the log2FC [30] was -0.54.
